Measured values reported in PubChem BioAssay AID310 (DTP/NCI, 2004).
The list does not hold the whole screen: it covers a few groups of compounds. Not every dose and run of a compound is shown. T/C gives the treated animals as a percentage of the vehicle group. Some T/C values are marked as having no survivor count here; that says nothing about deaths at the dose. Schedules are NCI's codes, read here as Q, the interval in days (D) or hours (H), X, the number of doses.

Test system: C3AKF1 mice, osteogenic sarcoma HE10734 s.c., tumor weight T/C
Assay: NCI In Vivo Anticancer Drug Screen. Data for tumor model Osteogenic Sarcoma HE 10734 (subcutaneous) in C3AKF1 (CHKRF1) mice
Details: T/C endpoint: mean tumor weight, schedule: Q01DX010 (ip), evaluation day not shown, higher T/C = larger tumour
Experimental: The antitumor activity of compounds was measured in mice bearing transplantable tumors. Survival or tumor size were measured and the results are expressed as the measurement made in the treated group (T) divided by the measurement made in the vehicle treated control group (C). The tumor model used in this assay is Osteogenic Sarcoma HE 10734 (subcutaneous) in C3AKF1 (CHKRF1) mice

[1] = dose: 2.5 mg/kg/injection, vehicle: saline

COc1cccc(N(CCCl)CCCl)c1OC
T/C (dose: 7.5 mg/kg/injection, vehicle: carboxymethylcellulose (CMC)): 81 % of control [survivor count not shown] | T/C (dose: 15.0 mg/kg/injection, vehicle: carboxymethylcellulose (CMC)): 177 % of control [survivor count not shown] | T/C (dose: 30.0 mg/kg/injection, vehicle: carboxymethylcellulose (CMC)): 117 % of control [survivor count not shown] | T/C (dose: 60.0 mg/kg/injection, vehicle: carboxymethylcellulose (CMC)): 115 % of control [survivor count not shown]

Oc1ccc(Cl)cc1CN(CCCl)CCCl
T/C (dose: 6.0 mg/kg/injection, vehicle: saline): 63 % of control [survivor count not shown] | T/C (dose: 12.0 mg/kg/injection, vehicle: saline): 42 % of control [survivor count not shown]

O[C@@H](CNCCCl)[C@@H](O)CNCCCl
T/C [1]: 118 % of control [survivor count not shown] | T/C (dose: 5.0 mg/kg/injection, vehicle: saline): 66 % of control [survivor count not shown] | T/C (dose: 10.0 mg/kg/injection, vehicle: saline): 89 % of control [survivor count not shown] | T/C (dose: 20.0 mg/kg/injection, vehicle: saline): 66 % of control [survivor count not shown]

O=C(O)CCc1ccc(CN(CCCl)CCCl)cc1
T/C (dose: 1.25 mg/kg/injection, vehicle: saline): 99 % of control [survivor count not shown] | T/C [1]: 59 % of control [survivor count not shown]

ClCCN(CCCl)Cc1nc2cc(Cl)c(Cl)cc2[nH]1
T/C (dose: 12.5 mg/kg/injection, vehicle: carboxymethylcellulose (CMC)): 70 % of control [survivor count not shown] | T/C (dose: 25.0 mg/kg/injection, vehicle: carboxymethylcellulose (CMC)): 68 % of control [survivor count not shown] | T/C (dose: 50.0 mg/kg/injection, vehicle: carboxymethylcellulose (CMC)): 95 % of control [survivor count not shown] | T/C (dose: 100.0 mg/kg/injection, vehicle: carboxymethylcellulose (CMC)): 57 % of control [survivor count not shown]

O=C(O)C(=O)Cc1ccc(N(CCCl)CCCl)cc1
T/C (dose: 7.0 mg/kg/injection, vehicle: saline): 68 % of control [survivor count not shown] | T/C (dose: 15.0 mg/kg/injection, vehicle: saline): 22 % of control [survivor count not shown]

ClCCN(CCCl)Cc1nc2ccc(Cl)cc2[nH]1
T/C (dose: 5.0 mg/kg/injection, vehicle: carboxymethylcellulose (CMC)): 73 % of control [survivor count not shown] | T/C (dose: 10.0 mg/kg/injection, vehicle: carboxymethylcellulose (CMC)): 86 % of control [survivor count not shown] | T/C (dose: 20.0 mg/kg/injection, vehicle: carboxymethylcellulose (CMC)): 89 % of control [survivor count not shown]
